Here are results for two sequences from paper PMC4150764, “Structural and functional basis of transcriptional regulation by TetR family protein CprB from S. coelicolor A3(2)” (Nucleic Acids Research, 2014).

Holding throughout (experiment): EMSA
Background: A gel shift assay detects complexes by their altered migration in electrophoresis.

Series [1] concerns the target T1, CprB S33A (Streptomyces coelicolor A3(2)) (UniProt Q7AKF2).
T1 sequence (looked up): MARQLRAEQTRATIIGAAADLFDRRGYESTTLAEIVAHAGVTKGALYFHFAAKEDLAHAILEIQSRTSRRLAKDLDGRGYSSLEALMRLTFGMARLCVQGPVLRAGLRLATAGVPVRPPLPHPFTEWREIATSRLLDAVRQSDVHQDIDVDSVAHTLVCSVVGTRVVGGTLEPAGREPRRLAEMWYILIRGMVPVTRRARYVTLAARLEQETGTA
The settings on record: almost no effect; EMSA: 10 mM Tris-HCl pH 7.8, 50 mM KCl, 1 mM EDTA, 1 mM DTT, 5% glycerol, hemoglobin, poly(dI-dC), 20 C, ~1 nM DNA; recombinant protein; residues 1-215; label: 5'-32P.

Series [2] addresses T2, CprB Y47A (Streptomyces coelicolor A3(2)) (UniProt Q7AKF2).
T2 sequence (looked up): T1 sequence (looked up) with A33S, Y47A
The settings on record: almost no effect, EMSA: 10 mM Tris-HCl pH 7.8, 50 mM KCl, 1 mM EDTA, 1 mM DTT, 5% glycerol, hemoglobin, poly(dI-dC), 20 C, ~1 nM DNA, recombinant protein, residues 1-215.

Series [3] has as its target T3, CprB K43A (Streptomyces coelicolor A3(2)) (UniProt Q7AKF2).
T3 sequence (looked up): T1 sequence (looked up) with A33S, K43A
The conditions noted are these: almost no effect; EMSA: 10 mM Tris-HCl pH 7.8, 50 mM KCl, 1 mM EDTA, 1 mM DTT, 5% glycerol, hemoglobin, poly(dI-dC), 20 C, ~1 nM DNA; recombinant protein; residues 1-215; label: 5'-32P.

Series [4] concerns the target T4, CprB T31A (Streptomyces coelicolor A3(2)) (UniProt Q7AKF2).
T4 sequence (looked up): T1 sequence (looked up) with T31A, A33S
The conditions noted are these: almost no effect, EMSA: 10 mM Tris-HCl pH 7.8, 50 mM KCl, 1 mM EDTA, 1 mM DTT, 5% glycerol, hemoglobin, poly(dI-dC), 20 C, ~1 nM DNA, recombinant protein, residues 1-215.

The target in series [5] is T5, CprB F48A (Streptomyces coelicolor A3(2)) (UniProt Q7AKF2).
T5 sequence (looked up): T1 sequence (looked up) with A33S, F48A
The settings on record: almost no effect, EMSA: 10 mM Tris-HCl pH 7.8, 50 mM KCl, 1 mM EDTA, 1 mM DTT, 5% glycerol, hemoglobin, poly(dI-dC), 20 C, ~1 nM DNA, recombinant protein, residues 1-215.

The target in series [6] is T6, CprB S33A K43A (Streptomyces coelicolor A3(2)) (UniProt Q7AKF2).
T6 sequence (looked up): T1 sequence (looked up) with K43A
The settings on record: drastic decrease; EMSA: 10 mM Tris-HCl pH 7.8, 50 mM KCl, 1 mM EDTA, 1 mM DTT, 5% glycerol, hemoglobin, poly(dI-dC), 20 C, ~1 nM DNA; recombinant protein; residues 1-215; label: 5'-32P (EMSA), none (ITC).

Where [7] appears, read: label: 5'-32P (EMSA), none (ITC).

Numbering of substitutions follows the chain as printed. For part of these data: The comparison behind a weaker result is the experiment's own reference, which may not be listed here. Protein sequences can lack the tags named with them. For part of these data: Construct, isoform or probe ends are uncertain for at least one entry. For part of these data: At least one verdict rests on a figure or table, not on a statement of the authors.

With “AACAGGCACACGGTCTGTTGGTTCT (double strand) [cprA upstream 25-mer (-44 to -20 of cprA-ATG)]”, the binding result in series [1], in series [2] (label: 5'-32P), in series [3], in series [4] (label: 5'-32P) and in series [5] (label: 5'-32P) was “binds” throughout.
On to “AGGCAGGCGGCACGGTCTGTTGAGTTC (double strand) [OPB 27-mer (-47 to -21 of cprB-ATG)]”, for which the binding result in series [2] (setting [7]) is listed as “binds”; in series [4] (setting [7]), “binds”; in series [6], “binds more weakly”; in series [5] (setting [7]), “binds”.
